The test system of the series is mPanc96 cells. In words: RNA-Seq transcriptional response to Gem. It is filed as cell-based, Human. Conditions: IC30 Gem for 24 hours. As for the experimental part:
Control sgRNA (CgRNA) and PRMT5-KO cells were treated with gemcitabine (200 nM) or EPZ015666 (500 nM) for 48 hours. Total RNA was purified using an RNeasy mini kit (Qiagen #74104) by following the kit instructions. mRNA was isolated by using NEBNext Poly(A) mRNA Magnetic Isolation Module (New England Biolabs #7490S). RNA-Seq libraries were prepared using the NEBNext Ultra Directional RNA Library Prep Kit for Illumina (New England Biolabs #E7420S) by following the company's protocol. A Qubit measurement and bioanalyzer were used to determine the library quality.
General sequencing data quality was examined using FastQC (v. 0.11.5). […] The resulting sam files were sorted by reading names and converted to bam files using samtools (v. 1.9) sort command. For ATAC-Seq, sequencing reads mapped to mitochondria DNA were removed from the bam files using the samtools view. […] Next, the bam files were quantified against gencode (v27lift37) annotation using Stringtie (v. 1.3.4d) with the default settings.
After obtaining the gene count matrix from Stringtie, we imported it into R and normalized the data following the pipeline of DESeq2. […] By calling the DESeq function, we determined genes with significant expression changes between the PRMT5 WT and KO samples thresholding at an adjusted P value of 0.01. […]

With `Nc1ccn([C@@H]2O[C@H](CO)[C@@H](O)C2(F)F)c(=O)n1` [Gem, 2′,2′-difluoro 2′-deoxycytidine], the genes significantly altered reads like this: (mPanc96 KO cells) 1,385 genes; (mPanc96 WT cells) 512 genes.
